Taken from: PubChem BioAssay AID1053208 (Peter MacCallum Cancer Centre, 2014)
The whole screen tested about 17,000 reagents; below is a part drawn at random. In the full data, 788 (4.7%) got an active call. 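Calls rest on z-score classes alone; an extra cut-off of viability at most 70% of control was not applied to them.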 Entries without a mark were called inactive. Further read-outs or replicates are left out here.

- Assay: 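Synthetic lethal interactions between gene loss and doxorubicin in osteosarcoma cells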 (primary screen)
- Cells: mouse osteosarcoma cells, early-passage culture from an engineered mouse model of fibroblastic bone tumour
- Reagent: siRNA pool against mouse genes, 40 nM
- Duration: about 120 h (48 h before drug, then 72 h with drug)
- Conditions: doxorubicin 100 nM for 72 h, roughly 30-40% inhibitory dose
- Measured: 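Viability read as ATP luminescence after 72 h of 100 nM doxorubicin or none, duplicate wells averaged, scaled to non-targeting siRNA, then expressed as robust z-scores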
- Scale: viability z-score with doxorubicin: higher = more viable cells under doxorubicin; viability z-score without drug: higher = more viable cells with knock-down alone
- Hit rule: 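a pool counts as active when its viability z-score with doxorubicin is -2 or below and its z-score without drug lies between -2 and 2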

gene symbol	combined z-score class	viability z-score with doxorubicin	viability z-score without drug
Qtrt1 (queuine tRNA-ribosyltransferase catalytic subunit 1)	no change with or without drug	0.45	-0.17
Wnt8a (WNT family member 8A)	no change with or without drug	0.67	-0.51
Elovl1 (ELOVL fatty acid elongase 1)	no change with or without drug	0.34	-0.17
Tacr2 (tachykinin receptor 2)	no change with or without drug	0.11	0.67
Shmt1 (serine hydroxymethyltransferase 1 (soluble))	no change with or without drug	0	0
Loxl1 (lysyl oxidase-like 1)	high cell count without drug only	1.01	2.02
Pbx4 (pre B cell leukemia homeobox 4)	no change with or without drug	-1.12	-1.52
Dusp26 (dual specificity phosphatase 26)	no change with or without drug	0.67	0.17
Wrap53 (WD repeat containing, antisense to Trp53)	no change with or without drug	0.22	1.18
Zfp46 (zinc finger protein 46)	no change with or without drug	-0.22	0.84
Tmem126a (transmembrane protein 126A)	high cell count with doxorubicin only	2.7	1.35
1700018B08Rik (RIKEN cDNA 1700018B08 gene)	no change with or without drug	-0.9	-0.84
Gm4876 (predicted gene 4876)	no change with or without drug	0.9	0.34
Tssk1 (testis-specific serine kinase 1)	low cell count with doxorubicin only (active)	-2.92	-1.52
Abi3bp (ABI family member 3 binding protein)	no change with or without drug	-0.34	-0.17
Or51h1 (olfactory receptor family 51 subfamily H member 1)	low cell count with doxorubicin only (active)	-2.7	-0.84
Or5p53 (olfactory receptor family 5 subfamily P member 53)	no change with or without drug	-1.8	-1.85
AI931714	no change with or without drug	1.12	1.52
Auts2 (autism susceptibility candidate 2)	no change with or without drug	-0.45	0.34
Jph4 (junctophilin 4)	no change with or without drug	0.11	-1.18
Dema1 (DPM1 ER membrane anchor 1)	no change with or without drug	0.22	-0.51
Fbxo22 (F-box protein 22)	no change with or without drug	-0.22	0.67
Ist1 (IST1 factor associated with ESCRT-III)	low cell count with doxorubicin only (active)	-3.48	0.84
E2f6 (E2F transcription factor 6)	no change with or without drug	0.22	-0.51
Tbpl1 (TATA box binding protein-like 1)	no change with or without drug	-0.22	0.84
Eps15l1 (EGFR pathway substrate 15-like 1)	no change with or without drug	-0.22	0.84
Ess2 (ess-2 splicing factor)	no change with or without drug	-1.8	0
Bpifb1 (BPI fold containing family B, member 1)	no change with or without drug	0.79	0.51
Matn1 (matrilin 1, cartilage matrix protein)	no change with or without drug	0	-1.52
Traf6 (TNF receptor-associated factor 6)	no change with or without drug	-0.67	0.17
Nnmt (nicotinamide N-methyltransferase)	no change with or without drug	-0.22	-1.52
Pold2 (polymerase (DNA directed), delta 2, regulatory subunit)	low cell count with doxorubicin only (active)	-5.17	-1.85
Satb2 (special AT-rich sequence binding protein 2)	no change with or without drug	-1.12	-0.84
Spns1 (SPNS lysolipid transporter 1, lysophospholipid)	no change with or without drug	0.34	0.17
Ptges (prostaglandin E synthase)	no change with or without drug	1.69	1.85
Col9a2 (collagen, type IX, alpha 2)	no change with or without drug	0.56	0.17
Or52w1 (olfactory receptor family 52 subfamily W member 1)	no change with or without drug	-1.91	-1.52
Hmga1 (high mobility group AT-hook 1)	no change with or without drug	1.01	-0.84
Ctsj (cathepsin J)	no change with or without drug	0.67	0.67
Ly6h (lymphocyte antigen 6 family member H)	no change with or without drug	0.11	-0.51
Lmbr1 (limb region 1)	no change with or without drug	0	-0.67
Sh3glb1 (SH3-domain GRB2-like B1 (endophilin))	low cell count with doxorubicin only (active)	-2.02	-1.18
Tcof1 (treacle ribosome biogenesis factor 1)	no change with or without drug	-1.57	-1.69
Uvrag (UV radiation resistance associated gene)	no change with or without drug	-0.22	0.34
Cwc15 (CWC15 spliceosome-associated protein)	low cell count without drug only	0.56	-2.53
4930555G01Rik (RIKEN cDNA 4930555G01 gene)	high cell count without drug only	0.79	2.36
Vmn1r52 (vomeronasal 1 receptor 52)	no change with or without drug	0.45	0.51
Trim27 (tripartite motif-containing 27)	no change with or without drug	-1.35	-0.51
Pla2g12b (phospholipase A2, group XIIB)	no change with or without drug	0.67	-0.84
Higd1a (HIG1 domain family, member 1A)	no change with or without drug	0.79	0.84
Tnfrsf8 (tumor necrosis factor receptor superfamily, member 8)	no change with or without drug	0.22	0.51
Psca (prostate stem cell antigen)	no change with or without drug	0.45	1.01
Dvl1 (dishevelled segment polarity protein 1)	no change with or without drug	-0.45	0.17
Myd88 (myeloid differentiation primary response gene 88)	no change with or without drug	0.67	-0.17
Lrrc66 (leucine rich repeat containing 66)	no change with or without drug	0.56	-0.34
Polr2c (polymerase (RNA) II (DNA directed) polypeptide C)	low cell count with doxorubicin only (active)	-4.27	0.51
Ptges3l (prostaglandin E synthase 3 like)	no change with or without drug	-1.57	-1.18
Kbtbd3 (kelch repeat and BTB (POZ) domain containing 3)	no change with or without drug	0	0.17
Rpl38 (ribosomal protein L38)	low cell count with and without drug	-5.4	-6.91
Cnbp (cellular nucleic acid binding protein)	no change with or without drug	-0.9	-0.84
5330438D12Rik (RIKEN cDNA 5330438D12 gene)	high cell count with and without drug	2.47	2.02
Anapc10 (anaphase promoting complex subunit 10)	low cell count with doxorubicin only (active)	-2.47	-0.17
Tnfrsf1b (tumor necrosis factor receptor superfamily, member 1b)	no change with or without drug	0.67	-0.17

Reagents above with an active call, once more:
gene symbol	combined z-score class	viability z-score with doxorubicin	viability z-score without drug
Tssk1 (testis-specific serine kinase 1)	low cell count with doxorubicin only (active)	-2.92	-1.52
Or51h1 (olfactory receptor family 51 subfamily H member 1)	low cell count with doxorubicin only (active)	-2.7	-0.84
Ist1 (IST1 factor associated with ESCRT-III)	low cell count with doxorubicin only (active)	-3.48	0.84
Pold2 (polymerase (DNA directed), delta 2, regulatory subunit)	low cell count with doxorubicin only (active)	-5.17	-1.85
Sh3glb1 (SH3-domain GRB2-like B1 (endophilin))	low cell count with doxorubicin only (active)	-2.02	-1.18
Polr2c (polymerase (RNA) II (DNA directed) polypeptide C)	low cell count with doxorubicin only (active)	-4.27	0.51
Anapc10 (anaphase promoting complex subunit 10)	low cell count with doxorubicin only (active)	-2.47	-0.17
